This passage reports binding results from publication PMC10394028.

Amino acid sequences for entries named in this document (tags omitted).
UniProt Q13547: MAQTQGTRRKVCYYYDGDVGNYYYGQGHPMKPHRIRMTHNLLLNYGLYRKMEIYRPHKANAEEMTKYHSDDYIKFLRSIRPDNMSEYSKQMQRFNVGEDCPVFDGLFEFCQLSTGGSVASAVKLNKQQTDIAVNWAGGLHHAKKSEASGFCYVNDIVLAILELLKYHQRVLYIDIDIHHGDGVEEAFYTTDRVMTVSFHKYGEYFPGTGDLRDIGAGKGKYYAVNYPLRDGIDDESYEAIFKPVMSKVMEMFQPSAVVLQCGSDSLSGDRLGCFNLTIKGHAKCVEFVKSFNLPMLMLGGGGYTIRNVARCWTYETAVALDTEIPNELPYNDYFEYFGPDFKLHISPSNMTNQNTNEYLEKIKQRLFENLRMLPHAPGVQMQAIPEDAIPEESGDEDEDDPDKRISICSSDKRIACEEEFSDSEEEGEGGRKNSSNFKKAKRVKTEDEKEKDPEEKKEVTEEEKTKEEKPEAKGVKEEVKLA

Results are given in words; binding and its absence hold for the method and conditions named. In cells and extracts the contact can be indirect. Some entries that bind do so weakly or less than the wild type. Sequences can lack the tags named with a protein.

For the experiment, the target named is T1, FLAG-tagged TRIB1 (human) (UniProt Q96RU8).
T1 sequence: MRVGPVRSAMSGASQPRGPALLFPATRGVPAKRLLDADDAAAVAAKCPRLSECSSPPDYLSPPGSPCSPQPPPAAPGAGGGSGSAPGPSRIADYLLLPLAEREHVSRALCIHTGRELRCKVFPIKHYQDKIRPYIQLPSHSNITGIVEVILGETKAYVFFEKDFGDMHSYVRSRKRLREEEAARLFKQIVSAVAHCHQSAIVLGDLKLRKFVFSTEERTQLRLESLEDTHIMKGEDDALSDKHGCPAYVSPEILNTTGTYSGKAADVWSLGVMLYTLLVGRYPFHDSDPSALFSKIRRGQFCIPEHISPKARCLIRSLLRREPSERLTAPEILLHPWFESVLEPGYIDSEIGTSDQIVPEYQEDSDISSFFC
The experiment is described as follows: co-IP; FLAG-tagged TRIB1 precipitated (FLAG antibody, Pierce Co-IP kit, or anti-DYKDDDDK magnetic agarose beads) from total lysates of stable GBM cells (T08-387, LN18, GBM30, 3359) in the kit's IP lysis buffer; eluate blotted; in one panel after COP1 knockdown by shRNA.

On to HDAC1 (from UniProt Q13547 1-482), for which the binding entry was “binds”.
As for “p53 (wild type, T08-387 cells) (from UniProt P04637 1-393)”, the binding entry is listed as “binds”.
